Data as given in PubChem BioAssay AID504786 (Drosophila RNAi Screening Center, 2011).

Aim: 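Knock-downs reducing HIF reporter induction by the iron chelator DFO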 (primary screen)
Cell system: Drosophila S2 cells with a stable HIF luciferase reporter
Reagents: long dsRNA against Drosophila genes, about 0.2 µg dsRNA per well of a 384-well plate
Timing: three days of knock-down, then 20 h of DFO before reading
Treatment: desferrioxamine (DFO) at 100 µM, an iron chelator that mimics hypoxia, for 20 h
Measured: 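Firefly luciferase driven by the mouse ldh-a hypoxia-response element, measured after 20 h of 100 µM DFO; z-scores per plate, higher means more signal lost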
Reading the numbers: z-score: higher = stronger loss of HIF reporter signal
The deposit covers about 21,000 reagents; this is a random part of those that have a named target and a result. 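Primary screen; positive scores mean lost reporter signal, so the sign may be inverted from the usual convention.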

Against U2A [SID104186237], the entry reads z-score, replicate 1 = 0.3; z-score, replicate 2 = 0.7.
For CG4480 [SID104182542], the entry reads z-score, replicate 1 = -0.2; z-score, replicate 2 = -0.4.
After knock-down of Trf4 [SID104180521], the record shows z-score, replicate 1 = -0.1; z-score, replicate 2 = -0.3.
For CG12768 [SID104191472], the entry reads z-score, replicate 1 = 0.3; z-score, replicate 2 = -0.2.
For toy [SID104197014] the deposit lists z-score, replicate 1 = -0.3; z-score, replicate 2 = -0.3.
After knock-down of Alp5 [SID104194061] the results were z-score, replicate 1 = -0.3; z-score, replicate 2 = -0.5.
Knock-down of p53 [SID104196816] gave: z-score, replicate 1 = -0.2; z-score, replicate 2 = -0.5.
With knock-down of Orc5 [SID104183182], the record shows z-score, replicate 1 = -0.3; z-score, replicate 2 = -0.4.
For ey [SID104196965], the values are z-score, replicate 1 = -0.4; z-score, replicate 2 = -0.4.
CG31612 [SID104183489] showed z-score, replicate 1 = -0.4; z-score, replicate 2 = -0.2.
Against CG31612 [SID104183490], the values are z-score, replicate 1 = -0.3; z-score, replicate 2 = 0.
ema [SID104194328] gave z-score, replicate 1 = -0.2; z-score, replicate 2 = 0.4.
eIF4H2 [SID104194374] showed z-score, replicate 1 = -0.3; z-score, replicate 2 = -0.7.
Depletion of obst-H [SID104190727] gave: z-score, replicate 1 = -0.1; z-score, replicate 2 = 0.8.
obst-H [SID104190732] gave z-score, replicate 1 = -0.2; z-score, replicate 2 = -0.7.
Silencing of CG31365 [SID104195402] gave: z-score, replicate 1 = -0.2; z-score, replicate 2 = -0.4.
Against CG7953 [SID104181694], the values are z-score, replicate 1 = -0.3; z-score, replicate 2 = -0.1.
Depletion of Rbp4 [SID104196610] came out at: z-score, replicate 1 = -0.1; z-score, replicate 2 = -0.4.
CG5612 [SID104195636] scored z-score, replicate 1 = 0.1; z-score, replicate 2 = 0.5.
With knock-down of CG3526 [SID104197032], the record shows z-score, replicate 1 = -0.1; z-score, replicate 2 = -0.3.
With knock-down of CG3526 [SID104198428] the results were z-score, replicate 1 = -0.3; z-score, replicate 2 = -0.6.
Vang [SID104187362] showed z-score, replicate 1 = -0.3; z-score, replicate 2 = -0.2.
With knock-down of CG14326 [SID104194597], the record shows z-score, replicate 1 = 0; z-score, replicate 2 = 0.3.
Silencing of CG3123 [SID104180362] resulted in: z-score, replicate 1 = 0.2; z-score, replicate 2 = 0.6.
CG11902 [SID104194226] scored z-score, replicate 1 = -0.6; z-score, replicate 2 = 0.3.
Against CG9986 [SID104196378], the values are z-score, replicate 1 = -0.3; z-score, replicate 2 = 0.2.
Knock-down of Ogdh [SID104189646] gave: z-score, replicate 1 = -0.3; z-score, replicate 2 = -0.1.
Ogdh [SID104189647] gave z-score, replicate 1 = -0.3; z-score, replicate 2 = -0.3.

Part of the list above, reformatted:
| gene knocked down | PubChem SID | z-score, replicate 1 | z-score, replicate 2 |
| --- | --- | --- | --- |
| Ogdh | SID104189646 | -0.3 | -0.1 |
| Ogdh | SID104189647 | -0.3 | -0.3 |
